# Values quoted from earlier work, collected in US12161649B2, “Inhibitors of EGFR and methods of use thereof” (DANA-FARBER CANCER INSTITUTE, INC., priority 2018, dated 2024).
# At least one compound was matched to its structure with a doubt left.
# System: NSCLC resistant to gefitinib or erlotinib
# Details: patients with NSCLC resistant to gefitinib or erlotinib; cited from earlier work
smiles,measurement,value
CN(C)C/C=C/C(=O)Nc1cc2c(Nc3ccc(F)c(Cl)c3)ncnc2cc1O[C@H]1CCOC1 [Afatinib],RR,< 10%
